Drawing on PubChem BioAssay AID248 (DTP/NCI, 2004), this text covers T/C and survivor count for 22 compounds.

The list is a part of this screen's results and no random one: it is rich in T/C values a quarter to a half above the control, in often repeated tests (any T/C) and in doses without a T/C. Further doses and runs are listed elsewhere. T/C gives the treated animals as a percentage of the vehicle group. Some entries give survivors of the animals treated and no T/C: the source holds a T/C of zero for them, seemingly a mark for toxic or unscored doses. Some survivor counts are full or nearly so, which does not show that the dose was tolerated: the source hardly ever lists a survival T/C far under the control, and the zero likely stands for such cases as well. Counts of survivors are from the toxicity check (mostly the fifth day) where no day follows; animals may have died later. Schedule codes are those of the source, taken here to give the interval after Q, in days (D) or hours (H), and the number of doses after X. Some schedules carry Z or #; the key to these is not given. Some entries hold several experiments; the values are given in rising order. Where survival is the endpoint, this PubChem deposit counts one and a half times the control or more as active, and values a quarter to a half above the control carry no call in these data; other NCI protocols may use other cut-offs. Some T/C values carry the count of animals alive at the toxicity check (mostly the fifth day); without a count, all were alive then.

In the assay the test system is L1210 leukemia ip in BDF1 mice, survival T/C. Put plainly: NCI In Vivo Anticancer Drug Screen. Data for tumor model L1210 Leukemia (intraperitoneal) in B6D2F1 (BDF1) mice. The following applies: T/C endpoint: mean survival time, higher T/C = longer survival.
Setting [1] is: dose: 100.0 mg/kg/injection, schedule: Q01DX001 (ip), vehicle: saline.
Where [2] appears, read: dose: 200.0 mg/kg/injection, schedule: Q01DX001 (ip), vehicle: saline.
Where [3] appears, read: dose: 400.0 mg/kg/injection, schedule: Q01DX001 (ip), vehicle: saline.
Setting [4] is: dose: 400.0 mg/kg/injection, schedule: Q04DX003 (ip), vehicle: saline.
[5] abbreviates: dose: 200.0 mg/kg/injection, schedule: Q01DX001 (ip), vehicle: carboxymethylcellulose (CMC).
The mark [6] stands for this setting: dose: 400.0 mg/kg/injection, schedule: Q01DX001 (ip), vehicle: carboxymethylcellulose (CMC).
Setting [7] is: dose: 400.0 mg/kg/injection, schedule: Q01DX009 (ip), vehicle: Klucel (hydroxypropylcellulose) (HPC).
Where [8] appears, read: dose: 200.0 mg/kg/injection, schedule: Q04DX003 (ip), vehicle: Klucel (hydroxypropylcellulose) (HPC).
[9] abbreviates: dose: 400.0 mg/kg/injection, schedule: Q04DX003 (ip), vehicle: Klucel (hydroxypropylcellulose) (HPC).

Regarding `O=[N+]([O-])c1ccc(/C=N/O)o1`, under setting [1], the T/C was 133 % of control [4 of 6 alive]. The survivor count (dose: 100.0 mg/kg/injection, schedule: Q04DX002 (ip), vehicle: Klucel (hydroxypropylcellulose) (HPC)) is on record as 0 of 3; the survivor count under setting [2] is on record as 2 of 6; the survivor count (dose: 200.0 mg/kg/injection, schedule: Q04DX002 (ip), vehicle: Klucel (hydroxypropylcellulose) (HPC)) was 1 of 3; the survivor count (dose: 400.0 mg/kg/injection, schedule: Q04DX002 (ip), vehicle: Klucel (hydroxypropylcellulose) (HPC)) is listed as 0 of 3.
Take `CCOC(=O)c1ccc(Oc2ncc([N+](=O)[O-])s2)cc1`: the survivor count (dose: 11.25 mg/kg/injection, schedule: Q01DX009 (ip), vehicle: acetone) was 6 of 6; the survivor count (dose: 12.5 mg/kg/injection, schedule: Q01DX001 (ip), vehicle: saline) was 6 of 6; the survivor count (dose: 22.5 mg/kg/injection, schedule: Q01DX009 (ip), vehicle: acetone) is given as 6 of 6; the survivor count (dose: 25.0 mg/kg/injection, schedule: Q01DX001 (ip), vehicle: saline) is 6 of 6; the survivor count (dose: 45.0 mg/kg/injection, schedule: Q01DX009 (ip), vehicle: acetone) was 6 of 6; the survivor count (dose: 45.0 mg/kg/injection, schedule: Q04DX003 (ip), vehicle: saline with Tween-80) is recorded as 6 of 6. Besides, the survivor count (dose: 50.0 mg/kg/injection, schedule: Q01DX001 (ip), vehicle: saline) is 6 of 6; the survivor count (dose: 65.0 mg/kg/injection, schedule: Q04DX003 (ip), vehicle: saline) is 3 of 6; the survivor count under setting [1] is 0 of 6; the survivor count under setting [2] is recorded as 0 of 6; the survivor count under setting [3] was 0 of 6.
On to `CC(C)Cc1nc2c([nH]1)c(=O)n(C)c(=O)n2C`, for which the survivor count under setting [3] is recorded as 0 of 4.
On to `Cc1cccc(C[As](C)(=O)O)c1`, for which the survivor count is, setting by setting: (dose: 200.0 mg/kg/injection, schedule: Q04DX003 (ip), vehicle: saline) 2 of 6; under setting [4], 0 of 6.
`O=C(O)/C(I)=C(\I)C(=O)O`: the survivor count (dose: 400.0 mg/kg/injection, schedule: Q04DX002 (ip), vehicle: saline) is 1 of 3.
As to `CCCCOc1ccc(NC(N)=Nc2ccc(Cl)cc2)cc1`, the survivor count by setting is: (dose: 100.0 mg/kg/injection, schedule: Q01DX001 (ip), vehicle: carboxymethylcellulose (CMC)) 0 of 4; under setting [5], 0 of 4; under setting [6], 0 of 4.
Regarding `Cc1ccc(NC(=O)N(CCCl)N=O)cc1`, for the setting “dose: 2.0 mg/kg/injection, schedule: Q01DX015 (ip), vehicle: carboxymethylcellulose (CMC)”, the T/C was 129 % of control. The survivor count is 5 of 6 (dose: 4.0 mg/kg/injection, schedule: Q01DX015 (ip), vehicle: carboxymethylcellulose (CMC)); 4 of 4 under setting [5]; 4 of 4 under setting [6].
Take `CC(C)(C)c1cc(/C=N/NC(=O)CCCCCCCCC(=O)N/N=C/c2cc(C(C)(C)C)c(O)c(C(C)(C)C)c2)cc(C(C)(C)C)c1O`: the survivor count (dose: 100.0 mg/kg/injection, schedule: Q01DX009 (ip), vehicle: Klucel (hydroxypropylcellulose) (HPC)) is 6 of 6; the survivor count under setting [7] was 1 of 3 and 3 of 6.
With `CC1CC(C)(C)N=C(C(C)CC(C)(C)C)O1` (stereo not drawn), the survivor count under setting [4] is 0 of 6.
With `CCOC(=O)c1c[n]([Hg][n]2cc(C(=O)OCC)c(Nc3ccccc3Br)nc2=O)c(=O)nc1Nc1ccccc1Br`, the survivor count was 2 of 6 (dose: 25.0 mg/kg/injection, schedule: Q04DX003 (ip), vehicle: Klucel (hydroxypropylcellulose) (HPC)); 0 of 6 (dose: 100.0 mg/kg/injection, schedule: Q04DX003 (ip), vehicle: Klucel (hydroxypropylcellulose) (HPC)); 0 of 6 under setting [8]; 0 of 6 under setting [9].
With `c1ccc2c(c1)ccc1cc3ccncc3cc12`, the T/C under setting [3] was 127 % of control.
As for `Nc1cccc2cccnc12` (tested in a mixture with another compound), the survivor count was 1 of 6 (dose: 100.0 mg/kg/injection, schedule: Q01DX009 (ip), vehicle: DMSO); 0 of 6 (dose: 200.0 mg/kg/injection, schedule: Q01DX009 (ip), vehicle: DMSO); 0 of 6 (dose: 400.0 mg/kg/injection, schedule: Q01DX009 (ip), vehicle: DMSO).
For `CCCCCNCCOC(=O)c1ccc(N)cc1`, the survivor count was 0 of 6 (dose: 75.0 mg/kg/injection, schedule: Q01DX001 (ip), vehicle: saline); 0 of 6 (dose: 150.0 mg/kg/injection, schedule: Q01DX001 (ip), vehicle: saline); 0 of 6 (dose: 300.0 mg/kg/injection, schedule: Q01DX001 (ip), vehicle: saline).
On to `CN(C)CCC(O)c1ccc(Cl)cc1` (stereo not drawn), for which the survivor count under setting [4] is 1 of 6.
Consider `CC=C1C(C(=O)O)C1C(=O)O` (stereo not drawn), for which the survivor count (dose: 200.0 mg/kg/injection, schedule: Q01DX009 (ip), vehicle: Klucel (hydroxypropylcellulose) (HPC)) was 1 of 6 and the survivor count under setting [7] is on record as 1 of 6.
As to `N#Cc1cn(C2OC(CO)C(O)C2O)c2ncnc([Se]Cc3ccc([N+](=O)[O-])cc3)c12` (stereo not drawn), the survivor count was 0 of 6 (dose: 100.0 mg/kg/injection, schedule: Q01DX005 (ip), vehicle: saline) and 0 of 6 (dose: 200.0 mg/kg/injection, schedule: Q01DX005 (ip), vehicle: saline).
Turning to `O=[N+]([O-])c1cc(Cl)c(Cl)cc1NS(=O)(=O)c1ccccc1`, the survivor count is 3 of 6 (dose: 500.0 mg/kg/injection, schedule: Q01DX015 (ip), vehicle: carboxymethylcellulose (CMC)) and 1 of 6 (dose: 600.0 mg/kg/injection, schedule: Q01DX015 (ip), vehicle: carboxymethylcellulose (CMC)).
As to `CC1(C)C(=NNC(N)=O)C(C)(C)C1=NNC(N)=O`, the survivor count under setting [8] is 6 of 6 and the survivor count under setting [9] is recorded as 6 of 6.
Regarding `CN(C)c1ccc(NC(=O)NCCCl)cc1`, the survivor count under setting [9] was 6 of 6.
Take `COc1ccc2c(ccc3nc(C)[nH]c(=O)c32)c1`: the survivor count is listed as 3 of 3 (dose: 200.0 mg/kg/injection, schedule: Q01DX001 (ip), vehicle: Klucel (hydroxypropylcellulose) (HPC)) and 0 of 3 (dose: 400.0 mg/kg/injection, schedule: Q01DX001 (ip), vehicle: Klucel (hydroxypropylcellulose) (HPC)).
In the case of `Cc1ccc(SC(=O)CCl)cc1`, the T/C (dose: 100.0 mg/kg/injection, schedule: Q01DX009 (ip), vehicle: gum acacia) is 137 % of control [5 of 6 alive]. Further, where the note is “dose: 400.0 mg/kg/injection, schedule: Q01DX009 (ip), vehicle: gum acacia”, the survivor count is given as 4 of 6.
In the case of `CC1CN1P(=O)(N1CCCCC1)N1CC1C` (stereo not drawn), the T/C is 132 % of control (dose: 25.0 mg/kg/injection, schedule: Q01DX Z (ip), vehicle: saline) and 133 % of control (dose: 57.0 mg/kg/injection, schedule: Q01DX Z (ip), vehicle: carboxymethylcellulose (CMC)). Besides, the survivor count is listed as 6 of 6 (dose: 65.0 mg/kg/injection, schedule: Q01DX Z (ip), vehicle: carboxymethylcellulose (CMC)); 6 of 6 (dose: 100.0 mg/kg/injection, schedule: Q01DX Z (ip), vehicle: carboxymethylcellulose (CMC)); 5 of 6 (dose: 150.0 mg/kg/injection, schedule: Q01DX Z (ip), vehicle: carboxymethylcellulose (CMC)); 5 of 6 (dose: 192.0 mg/kg/injection, schedule: Q01DX Z (ip), vehicle: saline); 2 of 6 (dose: 384.0 mg/kg/injection, schedule: Q01DX Z (ip), vehicle: saline); 0 of 6 (dose: 768.0 mg/kg/injection, schedule: Q01DX Z (ip), vehicle: saline).
